Assay results published in paper PMC11335227.
Results are given in words; binding and its absence hold for the method and conditions named. In cells and extracts the contact can be indirect. A result given as binding can be weak or reduced; the word gives no strength. Sequences can lack the tags named with a protein.

Biological target: T1, Myc-Tag Hand1 (Myc-Hand1) (mouse) (UniProt Q64279)
T1 sequence: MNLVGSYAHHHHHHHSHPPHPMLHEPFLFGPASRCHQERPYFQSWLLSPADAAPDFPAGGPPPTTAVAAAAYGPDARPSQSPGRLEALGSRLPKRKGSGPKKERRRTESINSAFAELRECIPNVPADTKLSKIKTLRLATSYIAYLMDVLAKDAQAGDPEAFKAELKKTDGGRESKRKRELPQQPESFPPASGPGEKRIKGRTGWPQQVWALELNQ
Assay: co-IP; lysates of JEG-3 cells transfected with JNK1* alone, Myc-Hand1 alone or both; immunocomplex precipitated by a Myc or Flag antibody, Western for Flag-p-JNK1

In the case of “constitutively active form of JNK1 (JNK1*), Flag-JNKK2-JNK1 fusion protein (enzyme)”, the binding is reported as “binds”.
